This is an account of results in US5026699A, “Use of 5,11-dihydro-6H-pyrido[2,3-b][1,4]-benzodiazepin-6-ones substituted in the 11-position for treating bradycardia and bradyarrhythmia in human and veterinary medicine” (Dr. Karl Thomae GmbH, priority 1988, dated 1991).

The chains behind the UniProt entries cited, without tags or fusion partners.
UniProt P08483, whole entry: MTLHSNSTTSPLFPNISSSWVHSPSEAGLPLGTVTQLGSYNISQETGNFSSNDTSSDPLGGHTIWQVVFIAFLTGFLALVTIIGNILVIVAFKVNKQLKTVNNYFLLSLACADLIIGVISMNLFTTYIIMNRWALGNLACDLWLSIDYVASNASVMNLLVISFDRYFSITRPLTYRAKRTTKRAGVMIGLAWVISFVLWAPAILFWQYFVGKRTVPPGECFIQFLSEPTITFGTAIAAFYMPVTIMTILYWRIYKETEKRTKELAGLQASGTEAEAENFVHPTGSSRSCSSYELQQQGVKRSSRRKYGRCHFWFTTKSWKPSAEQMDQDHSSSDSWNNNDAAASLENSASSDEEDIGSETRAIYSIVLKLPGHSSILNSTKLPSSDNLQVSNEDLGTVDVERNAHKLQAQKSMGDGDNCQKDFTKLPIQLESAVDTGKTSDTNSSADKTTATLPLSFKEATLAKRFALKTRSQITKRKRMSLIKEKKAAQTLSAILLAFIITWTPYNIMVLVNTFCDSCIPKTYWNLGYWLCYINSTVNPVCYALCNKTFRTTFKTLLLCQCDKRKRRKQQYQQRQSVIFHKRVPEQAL

Experiment [1] addresses T1, muscarinic receptors, heart (Rattus norvegicus, UniProt P10980).
T1 construct: The whole heart was cut up with scissors; from tissue; host or cells: whole heart of male Sprague-Dawley rats, homogenate
T1 sequence (P10980 1-466): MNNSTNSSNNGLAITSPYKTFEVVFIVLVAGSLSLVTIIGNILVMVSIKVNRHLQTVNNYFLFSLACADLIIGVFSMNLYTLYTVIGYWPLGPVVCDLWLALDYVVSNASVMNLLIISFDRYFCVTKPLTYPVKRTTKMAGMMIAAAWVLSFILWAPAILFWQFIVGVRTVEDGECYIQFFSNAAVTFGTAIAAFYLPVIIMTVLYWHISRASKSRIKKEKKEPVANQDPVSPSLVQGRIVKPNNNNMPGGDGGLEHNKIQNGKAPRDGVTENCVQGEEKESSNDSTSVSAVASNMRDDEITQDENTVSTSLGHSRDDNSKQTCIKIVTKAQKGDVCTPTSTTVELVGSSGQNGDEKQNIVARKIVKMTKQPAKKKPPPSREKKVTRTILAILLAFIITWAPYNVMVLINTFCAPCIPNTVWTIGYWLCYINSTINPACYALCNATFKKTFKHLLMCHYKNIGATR
In words: Receptor binding test in vitro, 3H-NMS displacement, whole heart homogenate. The note with it: rat whole heart homogenate 1:400; 0.3 nanomolar 3H-NMS; 30° C., 45 minutes; read-out: Receptor Binding Tests IC50, Heart. Here is the method: (§1) The organs were donated by male Sprague-Dawley rats weighing 180-220 g. After the heart and submandular gland and cerebral cortex had been removed, all other steps were carried out in ice cold Hepes HCl buffer (pH 7.4; 100 millimolar NaCl, 10 millimolar MgCl2). The whole heart was cut up with scissors. All the organs were then homogenized in a Potter apparatus.
(§2) For the binding test the homogenized organs were diluted as follows:
(§3) The homogenized organs were incubated at a certain concentration of the radioligand and at a series of concentrations of the non-radioactive test substances in an Eppendorf centrifuge tube at 30° C. Incubation lasted 45 minutes. The radioligand used was 0.3 nanomolar ^3 H--N- methylscopolamine (^3 H-NMS). Incubation was ended by the addition of ice cold buffer followed by vacuum filtration. The filters were rinsed with cold buffer and their radioactivity was determined. It represents the sum of specific and non-specific binding of ^3 H-NMS. The proportion of non-specific binding was defined as the radioactivity which was bound in the presence of 1 micromolar quinuclidinylbenzylate. Each measurement was taken four times. The IC50 values of the non-labelled test substances were determined graphically. They represent that concentration of test substance at which the specific binding of ^3 H-NMS to the muscarinic receptors in the various organs was inhibited by 50%.

The target of experiment [2] is T2, muscarinic receptors, submandibular gland (Rattus norvegicus, UniProt P08483).
T2 construct: All the organs were then homogenized in a Potter apparatus; from tissue; host or cells: submandibular gland of male Sprague-Dawley rats, homogenate
In words: Receptor binding test in vitro, 3H-NMS displacement, submandibular gland homogenate. The note with it: rat submandibular gland homogenate 1:400; 0.3 nanomolar 3H-NMS; 30° C., 45 minutes; read-out: Receptor Binding Tests IC50, Submandibular gland. Here is the method:
as §1, §2, §3

Experiment [3] addresses muscarinic receptors, cerebral cortex. As to the kind of experiment: Receptor binding test in vitro, 3H-NMS displacement, cerebral cortex homogenate. The note with it: rat cerebral cortex homogenate 1:3000; 0.3 nanomolar 3H-NMS; 30° C., 45 minutes; read-out: Receptor Binding Tests IC50, Cortex. As to the method:
as §1, §2, §3

Molecules are shown by their SMILES.

As a reminder, the IC50 is the concentration that gives 50% inhibition. Take `CN1CCCC1CCNCC(=O)N1c2ccccc2C(=O)Nc2cccnc21` (stereo not drawn) [A, 5,11-dihydro-11-[[[2-(1-methyl-2-pyrrolidinyl)ethyl]amino]acetyl]-6H-pyrido[2,3-b][1,4]benzodiazepin-6-one]: the IC50 in experiment [1] was 15 nM; in experiment [2] it was 150 nM; in experiment [3], 100 nM.
